Among the data in publication PMC12275198 are binding values, retold here.

One assay concerns the target T1, FLAG-YEATS2 (UniProt Q9ULM3).
T1 sequence: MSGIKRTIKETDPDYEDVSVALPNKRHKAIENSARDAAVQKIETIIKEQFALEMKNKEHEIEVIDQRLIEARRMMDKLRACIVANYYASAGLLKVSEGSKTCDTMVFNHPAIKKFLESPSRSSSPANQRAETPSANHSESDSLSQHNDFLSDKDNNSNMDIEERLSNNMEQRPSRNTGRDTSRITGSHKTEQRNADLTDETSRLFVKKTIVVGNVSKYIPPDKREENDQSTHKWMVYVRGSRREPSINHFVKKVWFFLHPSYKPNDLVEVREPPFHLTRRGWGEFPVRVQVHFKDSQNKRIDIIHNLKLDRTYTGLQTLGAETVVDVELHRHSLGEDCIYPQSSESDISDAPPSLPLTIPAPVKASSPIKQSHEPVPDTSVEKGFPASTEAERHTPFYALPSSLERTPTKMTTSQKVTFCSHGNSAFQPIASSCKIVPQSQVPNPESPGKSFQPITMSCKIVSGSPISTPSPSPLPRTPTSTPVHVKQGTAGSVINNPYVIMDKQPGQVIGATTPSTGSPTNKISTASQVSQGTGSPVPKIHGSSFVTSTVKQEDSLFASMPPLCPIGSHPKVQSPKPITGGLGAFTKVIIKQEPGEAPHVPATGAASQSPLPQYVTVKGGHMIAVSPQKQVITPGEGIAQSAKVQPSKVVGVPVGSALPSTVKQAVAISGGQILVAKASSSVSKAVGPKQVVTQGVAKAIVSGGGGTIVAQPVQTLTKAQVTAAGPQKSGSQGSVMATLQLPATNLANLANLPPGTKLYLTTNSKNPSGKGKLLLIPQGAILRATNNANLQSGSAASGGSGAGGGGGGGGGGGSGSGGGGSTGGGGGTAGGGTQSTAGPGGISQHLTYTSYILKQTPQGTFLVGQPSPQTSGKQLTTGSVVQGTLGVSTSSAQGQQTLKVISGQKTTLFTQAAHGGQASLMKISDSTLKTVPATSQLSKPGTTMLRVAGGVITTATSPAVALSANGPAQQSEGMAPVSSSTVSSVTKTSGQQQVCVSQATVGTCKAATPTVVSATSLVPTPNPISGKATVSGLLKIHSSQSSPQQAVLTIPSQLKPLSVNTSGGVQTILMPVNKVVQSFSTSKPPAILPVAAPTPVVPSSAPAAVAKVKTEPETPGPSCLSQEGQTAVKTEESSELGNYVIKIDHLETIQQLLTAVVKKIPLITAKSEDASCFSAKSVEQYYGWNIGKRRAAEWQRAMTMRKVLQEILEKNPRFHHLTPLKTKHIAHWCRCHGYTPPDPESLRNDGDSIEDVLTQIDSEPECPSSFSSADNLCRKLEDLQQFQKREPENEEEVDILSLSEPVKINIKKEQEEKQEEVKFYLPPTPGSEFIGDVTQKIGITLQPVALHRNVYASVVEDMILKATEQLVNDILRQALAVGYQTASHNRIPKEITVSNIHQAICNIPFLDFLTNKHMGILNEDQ
Description: co-IP; cotransfected cells, lysates fractionated into chromatin portions, then IP of tagged YEATS2 (anti-FLAG or anti-HA) and immunoblot. (In western blotting, separated proteins are transferred to a membrane and probed.)

In the next assay the target is T2, FLAG-YEATS2-T604A (UniProt Q9ULM3).
T2 sequence: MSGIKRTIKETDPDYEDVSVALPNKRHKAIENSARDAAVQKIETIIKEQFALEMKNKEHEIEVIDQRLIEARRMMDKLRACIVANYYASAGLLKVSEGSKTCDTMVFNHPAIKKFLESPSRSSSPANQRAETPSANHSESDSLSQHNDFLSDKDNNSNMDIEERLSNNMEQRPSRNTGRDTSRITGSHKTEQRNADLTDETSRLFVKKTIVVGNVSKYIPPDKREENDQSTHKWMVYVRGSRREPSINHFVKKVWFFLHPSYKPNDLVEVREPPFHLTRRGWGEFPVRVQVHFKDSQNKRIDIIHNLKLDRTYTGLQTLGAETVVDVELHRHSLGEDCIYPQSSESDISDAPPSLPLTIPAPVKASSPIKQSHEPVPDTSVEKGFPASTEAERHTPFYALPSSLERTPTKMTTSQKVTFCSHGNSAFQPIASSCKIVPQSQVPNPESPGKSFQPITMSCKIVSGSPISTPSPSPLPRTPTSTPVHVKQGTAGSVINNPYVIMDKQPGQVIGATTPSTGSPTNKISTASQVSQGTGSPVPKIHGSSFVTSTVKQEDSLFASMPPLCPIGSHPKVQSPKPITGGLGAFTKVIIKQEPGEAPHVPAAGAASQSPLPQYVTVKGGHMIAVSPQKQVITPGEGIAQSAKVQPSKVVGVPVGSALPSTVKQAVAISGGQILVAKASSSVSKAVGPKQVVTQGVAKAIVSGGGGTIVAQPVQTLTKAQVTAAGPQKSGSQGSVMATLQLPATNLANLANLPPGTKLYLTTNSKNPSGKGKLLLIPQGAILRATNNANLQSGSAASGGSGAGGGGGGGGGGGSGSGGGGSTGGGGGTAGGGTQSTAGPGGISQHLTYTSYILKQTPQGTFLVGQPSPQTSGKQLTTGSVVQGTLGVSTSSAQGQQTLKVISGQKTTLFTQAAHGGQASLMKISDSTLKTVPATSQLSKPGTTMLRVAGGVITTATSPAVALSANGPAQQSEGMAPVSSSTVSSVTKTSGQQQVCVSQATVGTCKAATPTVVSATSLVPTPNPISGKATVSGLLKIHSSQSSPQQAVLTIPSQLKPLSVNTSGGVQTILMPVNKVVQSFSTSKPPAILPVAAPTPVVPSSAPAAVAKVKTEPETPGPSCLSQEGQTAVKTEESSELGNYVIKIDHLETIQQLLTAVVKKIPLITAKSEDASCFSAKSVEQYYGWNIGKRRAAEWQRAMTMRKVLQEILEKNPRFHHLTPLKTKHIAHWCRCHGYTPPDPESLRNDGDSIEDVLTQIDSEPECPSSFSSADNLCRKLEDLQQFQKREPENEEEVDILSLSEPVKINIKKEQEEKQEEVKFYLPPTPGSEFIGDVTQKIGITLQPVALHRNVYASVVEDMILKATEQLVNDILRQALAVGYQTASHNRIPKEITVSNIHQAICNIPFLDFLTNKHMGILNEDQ
The description is as above.

No constants are given. Whether binding was seen depends on the method and setting. Binding seen in cells or lysates may run through a third protein. Some entries that bind do so weakly or less than the wild type. Tags and fused reporters may be left off the sequences shown.

B1: HA-ZZZ3 (protein, UniProt Q8IYH5 1-903)
chain: MAASRSTRVTRSTVGLNGLDESFCGRTLRNRSIAHPEEISSNSQVRSRSPKKRPEPVPIQKGNNNGRTTDLKQQSTRESWVSPRKRGLSSSEKDNIERQAIENCERRQTEPVSPVLKRIKRCLRSEAPNSSEEDSPIKSDKESVEQRSTVVDNDADFQGTKRACRCLILDDCEKREIKKVNVSEEGPLNSAVVEEITGYLAVNGVDDSDSAVINCDDCQPDGNTKQNSIGSYVLQEKSVAENGDTDTQTSMFLDSRKEDSYIDHKVPCTDSQVQVKLEDHKIVTACLPVEHVNQLTTEPATGPFSETQSSLRDSEEEVDVVGDSSASKEQCKENTNNELDTSLESMPASGEPEPSPVLDCVSAQMMSLSEPQEHRYTLRTSPRRAAPTRGSPTKNSSPYRENGQFEENNLSPNETNATVSDNVSQSPTNPGEISQNEKGICCDSQNNGSEGVSKPPSEARLNIGHLPSAKESASQHITEEEDDDPDVYYFESDHVALKHNKDYQRLLQTIAVLEAQRSQAVQDLESLGRHQREALKNPIGFVEKLQKKADIGLPYPQRVVQLPEIVWDQYTHSLGNFEREFKNRKRHTRRVKLVFDKVGLPARPKSPLDPKKDGESLSYSMLPLSDGPEGSSSRPQMIRGRLCDDTKPETFNQLWTVEEQKKLEQLLIKYPPEEVESRRWQKIADELGNRTAKQVASRVQKYFIKLTKAGIPVPGRTPNLYIYSKKSSTSRRQHPLNKHLFKPSTFMTSHEPPVYMDEDDDRSCFHSHMNTAVEDASDDESIPIMYRNLPEYKELLQFKKLKKQKLQQMQAESGFVQHVGFKCDNCGIEPIQGVRWHCQDCPPEMSLDFCDSCSDCLHETDIHKEDHQLEPIYRSETFLDRDYCVSQGTSYNYLDPNYFPANR
As for B1, the binding result in the assay with FLAG-YEATS2 and in the assay with FLAG-YEATS2-T604A was “binds” each time.
